Record: PubChem BioAssay AID1259254 (NCATS, 2017)

Screen: 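Gene knock-downs that lead to re-replication, shown by excess G2 DNA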 (primary screen)
Cells: human HCT116 colorectal cancer cells
Knock-down reagent: single siRNA against human genes
Duration: 3 days
Measurement: 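Imaged Hoechst DNA stain sorts each cell into a cycle phase by DNA amount; per plate, G2 fraction set to 0% for non-targeting and 100% for GMNN siRNA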
Direction: G2 robust z-score and G2 cells, % of GMNN control: higher = more G2 cells, more excess DNA replication
Rule for the call: 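Active siRNAs have a G2 robust z of 5 or more median absolute deviations over the median, which in these data means about 38% or higher of GMNN control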
Here is an unselected part of about 59,000 deposited reagents. In the full data, about 1,550 (2.6%) got an active call. 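G2 share is only a proxy for re-replication; each gene was hit by three separate siRNAs, and active genes were retested.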 The numbers tell different reagents against one gene apart. Not all columns of the deposit are shown. Not stated in the record: the amount of reagent.

| gene | siRNA no. | G2 robust z-score | G2 cells, % of GMNN control | activity call |
| --- | --- | --- | --- | --- |
| ZNF846 | 1 | -0.518 | -0.679 | inactive |
| ZNF846 | 2 | -0.721 | -2.11 | inactive |
| ZNF846 | 3 | 4.02 | 31.3 | inactive |
| MBD3 | 1 | -0.0911 | 2.33 | inactive |
| MBD3 | 2 | -0.127 | 2.07 | inactive |
| MBD3 | 3 | 1.38 | 12.7 | inactive |
| TNFSF10 | 1 | 4.7 | 36 | inactive |
| TNFSF10 | 2 | 2.32 | 19.3 | inactive |
| TNFSF10 | 3 | -0.54 | -0.833 | inactive |
| HAVCR2 | 1 | 2.12 | 17.9 | inactive |
| HAVCR2 | 2 | 1.14 | 11 | inactive |
| HAVCR2 | 3 | -0.378 | 0.306 | inactive |
| STXBP5L | 1 | 1.71 | 15 | inactive |
| STXBP5L | 2 | 1.01 | 10.1 | inactive |
| STXBP5L | 3 | 1.28 | 12 | inactive |
| OPTN | 1 | -0.0804 | 2.4 | inactive |
| OPTN | 2 | -0.644 | -1.56 | inactive |
| OPTN | 3 | 2.34 | 19.4 | inactive |
| C12orf71 | 1 | -0.327 | 0.665 | inactive |
| C12orf71 | 2 | -0.496 | -0.523 | inactive |
| C12orf71 | 3 | 0.0195 | 3.1 | inactive |
| PTGIR | 1 | -0.582 | -1.13 | inactive |
| PTGIR | 2 | -0.51 | -0.623 | inactive |
| PTGIR | 3 | -0.711 | -2.03 | inactive |
| RFTN2 | 1 | -0.698 | -1.94 | inactive |
| RFTN2 | 2 | 1.6 | 14.2 | inactive |
| RFTN2 | 3 | 0.139 | 3.95 | inactive |
| POLD1 | 1 | 1.61 | 14.3 | inactive |
| POLD1 | 2 | 4.27 | 33 | inactive |
| POLD1 | 3 | 4.07 | 31.6 | inactive |
| RPP40 | 1 | -0.613 | -1.35 | inactive |
| RPP40 | 2 | -0.404 | 0.125 | inactive |
| RPP40 | 3 | -0.251 | 1.2 | inactive |
| PPBP | 1 | -0.212 | 1.48 | inactive |
| PPBP | 2 | -0.54 | -0.833 | inactive |
| PPBP | 3 | 0.332 | 5.3 | inactive |
| OR1L3 | 1 | -0.747 | -2.29 | inactive |
| OR1L3 | 2 | 2.99 | 24 | inactive |
| OR1L3 | 3 | 0.135 | 3.92 | inactive |
| ZNF253 | 1 | 0.997 | 9.98 | inactive |
| ZNF253 | 2 | -0.9 | -3.36 | inactive |
| ZNF253 | 3 | 3.71 | 29.1 | inactive |
| SSU72 | 1 | -0.849 | -3.01 | inactive |
| SSU72 | 2 | -0.657 | -1.66 | inactive |
| SSU72 | 3 | 2.56 | 21 | inactive |
| MAP3K10 | 1 | 1.54 | 13.8 | inactive |
| MAP3K10 | 2 | -1.38 | -6.74 | inactive |
| MAP3K10 | 3 | -0.615 | -1.36 | inactive |
| PRR18 | 1 | -0.58 | -1.11 | inactive |
| PRR18 | 2 | 0.169 | 4.16 | inactive |
| PRR18 | 3 | -0.377 | 0.314 | inactive |
| ASCL4 | 1 | -0.0168 | 2.85 | inactive |
| ASCL4 | 2 | 2.25 | 18.8 | inactive |
| ASCL4 | 3 | 0.122 | 3.82 | inactive |
| HOXD8 | 1 | -1.28 | -6.06 | inactive |
| HOXD8 | 2 | 0.302 | 5.09 | inactive |
| HOXD8 | 3 | -0.713 | -2.05 | inactive |
| E2F6P4 | 1 | 1.19 | 11.3 | inactive |
| E2F6P4 | 2 | 0.92 | 9.44 | inactive |
| E2F6P4 | 3 | 0.598 | 7.18 | inactive |
| CHD6 | 1 | -0.82 | -2.8 | inactive |
| CHD6 | 2 | -0.311 | 0.776 | inactive |
| CHD6 | 3 | -0.353 | 0.486 | inactive |
| RLBP1 | 1 | 2.51 | 20.6 | inactive |
| RLBP1 | 2 | -0.869 | -3.15 | inactive |
| RLBP1 | 3 | -1.17 | -5.26 | inactive |
| IGSF8 | 1 | 0.0637 | 3.42 | inactive |
| IGSF8 | 2 | 4.34 | 33.5 | inactive |
| IGSF8 | 3 | 0.606 | 7.23 | inactive |

5 entries from above, showing only “G2 robust z-score”:
HOXD8 #3: -0.713
E2F6P4 #1: 1.19
E2F6P4 #2: 0.92
E2F6P4 #3: 0.598
CHD6 #1: -0.82
